Measurements taken from patent US20120058977A1, “PHARMACEUTICAL COMPOSITIONS AND METHODS FOR TREATING TUBERCULOSIS” (Rijksuniversiteit Groningen, priority 2009, published 2012).
Some results were stated once for a whole list of compounds, not compound by compound.

System: 3-ketosteroid 9α-hydroxylase (KSH) activity
Conditions: AD 0.5 g/L; strain RG8-37 in mineral glucose medium; within 8 hours; comparable to controls without test compound

Compound | AD converted into 9OHAD, yield
C[C@]12CCCC[C@@H]1CCC2=O (racemic) [compound I] | up to 90%
C[C@]12CCCC[C@@H]1CC[C@@H]2O (racemic) [racemic compound II, rac-(1β,3aα,7aβ)-7a-methyl-1H-octahydroinden-1-ol] | up to 90%
